Results published in the supplement of paper PMC10849652.
Some of the results follow.

Sequences of proteins named here, by UniProt entry; tags and fusion partners are left off. A change or cut given only in a name is not applied to a line headed by its entry.
UniProt Q10713: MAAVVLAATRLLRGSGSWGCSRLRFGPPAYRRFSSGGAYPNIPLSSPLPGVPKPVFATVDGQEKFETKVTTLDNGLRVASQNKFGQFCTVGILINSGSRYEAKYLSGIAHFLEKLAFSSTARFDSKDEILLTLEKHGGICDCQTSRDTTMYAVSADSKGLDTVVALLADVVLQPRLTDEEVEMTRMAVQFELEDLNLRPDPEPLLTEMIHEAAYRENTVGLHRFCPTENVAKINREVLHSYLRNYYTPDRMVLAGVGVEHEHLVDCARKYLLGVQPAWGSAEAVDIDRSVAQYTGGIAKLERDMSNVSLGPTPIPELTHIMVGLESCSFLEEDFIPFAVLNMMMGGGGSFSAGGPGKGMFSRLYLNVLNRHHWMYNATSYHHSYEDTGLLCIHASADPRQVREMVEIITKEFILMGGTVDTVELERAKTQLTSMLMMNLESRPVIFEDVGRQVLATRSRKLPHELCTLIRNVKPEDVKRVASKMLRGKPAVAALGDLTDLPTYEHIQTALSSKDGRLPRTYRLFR
UniProt Q8IY17: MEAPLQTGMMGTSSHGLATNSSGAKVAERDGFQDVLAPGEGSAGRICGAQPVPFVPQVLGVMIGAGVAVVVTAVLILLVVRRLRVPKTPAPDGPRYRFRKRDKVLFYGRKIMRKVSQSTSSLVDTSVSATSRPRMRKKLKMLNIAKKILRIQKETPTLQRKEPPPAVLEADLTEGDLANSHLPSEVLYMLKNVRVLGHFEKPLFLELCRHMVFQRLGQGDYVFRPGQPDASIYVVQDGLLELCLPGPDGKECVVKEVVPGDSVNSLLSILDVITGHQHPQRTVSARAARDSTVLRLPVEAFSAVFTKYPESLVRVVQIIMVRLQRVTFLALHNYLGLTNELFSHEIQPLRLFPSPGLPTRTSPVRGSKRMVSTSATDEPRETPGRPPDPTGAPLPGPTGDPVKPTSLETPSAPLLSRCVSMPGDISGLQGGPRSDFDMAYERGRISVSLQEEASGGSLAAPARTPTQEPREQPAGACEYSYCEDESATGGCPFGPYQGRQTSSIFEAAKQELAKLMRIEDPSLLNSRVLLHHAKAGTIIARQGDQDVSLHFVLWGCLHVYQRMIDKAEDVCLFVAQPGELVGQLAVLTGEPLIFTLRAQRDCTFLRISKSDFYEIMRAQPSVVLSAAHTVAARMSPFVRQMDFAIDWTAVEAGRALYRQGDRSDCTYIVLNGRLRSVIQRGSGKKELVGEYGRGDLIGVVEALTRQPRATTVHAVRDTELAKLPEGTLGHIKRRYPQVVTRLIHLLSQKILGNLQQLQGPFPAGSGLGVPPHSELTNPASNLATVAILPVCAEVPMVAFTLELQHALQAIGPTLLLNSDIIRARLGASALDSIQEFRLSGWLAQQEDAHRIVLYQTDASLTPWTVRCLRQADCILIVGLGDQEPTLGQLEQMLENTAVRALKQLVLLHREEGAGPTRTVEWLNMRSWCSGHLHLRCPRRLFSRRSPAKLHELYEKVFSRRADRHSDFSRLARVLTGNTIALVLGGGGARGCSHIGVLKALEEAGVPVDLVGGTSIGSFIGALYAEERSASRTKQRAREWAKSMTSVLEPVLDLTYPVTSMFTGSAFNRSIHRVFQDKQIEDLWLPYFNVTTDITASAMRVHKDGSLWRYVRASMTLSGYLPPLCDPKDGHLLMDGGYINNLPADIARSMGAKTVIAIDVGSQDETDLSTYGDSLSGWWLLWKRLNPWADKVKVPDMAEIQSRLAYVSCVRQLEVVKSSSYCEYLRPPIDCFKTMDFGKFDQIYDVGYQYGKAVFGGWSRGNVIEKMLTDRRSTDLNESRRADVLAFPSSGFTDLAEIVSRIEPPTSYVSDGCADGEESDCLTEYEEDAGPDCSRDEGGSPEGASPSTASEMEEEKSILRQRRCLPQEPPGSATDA
UniProt O95707: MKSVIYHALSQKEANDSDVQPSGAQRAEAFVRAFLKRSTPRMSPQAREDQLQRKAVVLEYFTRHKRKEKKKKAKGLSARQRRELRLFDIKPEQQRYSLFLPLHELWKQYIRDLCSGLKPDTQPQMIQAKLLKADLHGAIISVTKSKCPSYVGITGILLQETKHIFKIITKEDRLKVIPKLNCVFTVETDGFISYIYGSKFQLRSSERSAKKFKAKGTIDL
UniProt Q8TF01: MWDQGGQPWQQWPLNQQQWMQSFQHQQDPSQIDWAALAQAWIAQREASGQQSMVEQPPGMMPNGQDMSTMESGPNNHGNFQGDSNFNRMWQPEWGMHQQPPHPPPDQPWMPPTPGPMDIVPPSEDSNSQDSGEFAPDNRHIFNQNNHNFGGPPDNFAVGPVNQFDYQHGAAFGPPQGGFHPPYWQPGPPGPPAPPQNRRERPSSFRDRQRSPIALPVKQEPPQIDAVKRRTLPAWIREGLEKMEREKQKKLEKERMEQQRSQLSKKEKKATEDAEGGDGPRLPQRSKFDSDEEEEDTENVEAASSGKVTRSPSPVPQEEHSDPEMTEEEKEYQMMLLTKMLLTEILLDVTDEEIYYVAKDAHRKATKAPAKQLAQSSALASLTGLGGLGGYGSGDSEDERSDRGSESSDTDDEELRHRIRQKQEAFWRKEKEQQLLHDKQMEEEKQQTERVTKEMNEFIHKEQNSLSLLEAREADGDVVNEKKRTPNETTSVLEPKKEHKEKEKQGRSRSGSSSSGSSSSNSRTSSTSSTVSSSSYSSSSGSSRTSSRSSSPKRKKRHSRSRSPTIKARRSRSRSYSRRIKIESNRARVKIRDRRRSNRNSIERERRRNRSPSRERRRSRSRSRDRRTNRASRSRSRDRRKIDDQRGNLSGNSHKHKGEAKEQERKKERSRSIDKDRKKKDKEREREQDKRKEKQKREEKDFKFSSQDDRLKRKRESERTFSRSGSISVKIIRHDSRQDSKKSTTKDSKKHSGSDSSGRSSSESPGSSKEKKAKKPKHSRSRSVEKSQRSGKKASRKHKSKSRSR
UniProt P00747, whole entry, looked up: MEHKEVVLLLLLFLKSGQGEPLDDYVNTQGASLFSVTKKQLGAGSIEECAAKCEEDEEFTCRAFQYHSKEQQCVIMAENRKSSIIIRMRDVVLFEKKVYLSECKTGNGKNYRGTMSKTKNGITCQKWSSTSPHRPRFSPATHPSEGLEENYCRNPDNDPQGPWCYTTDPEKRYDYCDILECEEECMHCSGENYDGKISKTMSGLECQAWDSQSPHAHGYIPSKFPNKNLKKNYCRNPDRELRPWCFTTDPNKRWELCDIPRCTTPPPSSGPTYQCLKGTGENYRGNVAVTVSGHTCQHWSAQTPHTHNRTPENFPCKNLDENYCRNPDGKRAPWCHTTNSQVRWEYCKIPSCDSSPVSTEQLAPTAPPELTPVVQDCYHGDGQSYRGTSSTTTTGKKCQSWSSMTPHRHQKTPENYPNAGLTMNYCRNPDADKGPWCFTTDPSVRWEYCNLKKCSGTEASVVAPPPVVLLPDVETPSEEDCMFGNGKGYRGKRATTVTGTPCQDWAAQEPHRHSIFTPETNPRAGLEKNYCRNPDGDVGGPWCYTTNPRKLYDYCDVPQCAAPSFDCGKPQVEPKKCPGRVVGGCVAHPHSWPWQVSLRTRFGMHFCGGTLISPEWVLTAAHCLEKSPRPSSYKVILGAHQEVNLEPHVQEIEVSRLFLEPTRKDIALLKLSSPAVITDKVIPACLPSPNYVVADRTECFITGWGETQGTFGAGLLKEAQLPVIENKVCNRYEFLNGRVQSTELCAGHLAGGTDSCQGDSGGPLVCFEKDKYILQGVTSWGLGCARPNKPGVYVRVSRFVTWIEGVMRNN
UniProt Q08752, whole entry, looked up: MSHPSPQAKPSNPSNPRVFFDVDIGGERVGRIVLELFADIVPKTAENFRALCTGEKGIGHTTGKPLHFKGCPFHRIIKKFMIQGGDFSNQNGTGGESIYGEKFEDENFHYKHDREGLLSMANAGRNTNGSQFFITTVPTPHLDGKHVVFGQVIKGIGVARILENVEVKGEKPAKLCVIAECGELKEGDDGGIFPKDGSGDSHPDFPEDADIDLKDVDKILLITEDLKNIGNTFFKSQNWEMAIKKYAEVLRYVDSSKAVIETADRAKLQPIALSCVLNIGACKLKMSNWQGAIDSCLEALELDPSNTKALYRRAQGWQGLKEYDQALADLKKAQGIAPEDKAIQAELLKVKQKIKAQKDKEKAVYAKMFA
UniProt Q8TCS8: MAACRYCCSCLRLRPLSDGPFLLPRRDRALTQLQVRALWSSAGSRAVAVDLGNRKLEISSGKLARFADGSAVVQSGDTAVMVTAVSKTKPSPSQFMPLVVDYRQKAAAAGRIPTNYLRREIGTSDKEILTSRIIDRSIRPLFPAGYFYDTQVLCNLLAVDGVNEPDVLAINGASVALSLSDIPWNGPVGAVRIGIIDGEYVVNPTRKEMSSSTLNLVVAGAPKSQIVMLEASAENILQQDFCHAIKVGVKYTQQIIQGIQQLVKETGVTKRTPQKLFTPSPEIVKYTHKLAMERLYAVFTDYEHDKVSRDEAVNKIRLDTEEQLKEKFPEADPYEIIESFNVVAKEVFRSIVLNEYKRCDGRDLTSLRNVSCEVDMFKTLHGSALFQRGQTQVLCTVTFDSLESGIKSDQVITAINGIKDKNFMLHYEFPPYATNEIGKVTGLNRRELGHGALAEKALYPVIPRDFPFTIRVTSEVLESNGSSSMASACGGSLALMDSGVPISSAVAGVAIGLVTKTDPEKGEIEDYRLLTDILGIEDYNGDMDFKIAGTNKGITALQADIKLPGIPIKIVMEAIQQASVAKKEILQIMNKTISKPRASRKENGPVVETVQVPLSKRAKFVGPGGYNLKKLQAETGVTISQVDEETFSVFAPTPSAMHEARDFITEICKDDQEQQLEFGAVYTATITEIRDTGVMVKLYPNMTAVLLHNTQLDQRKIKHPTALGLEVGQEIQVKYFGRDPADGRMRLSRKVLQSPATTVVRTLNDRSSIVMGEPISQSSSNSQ
UniProt Q15054: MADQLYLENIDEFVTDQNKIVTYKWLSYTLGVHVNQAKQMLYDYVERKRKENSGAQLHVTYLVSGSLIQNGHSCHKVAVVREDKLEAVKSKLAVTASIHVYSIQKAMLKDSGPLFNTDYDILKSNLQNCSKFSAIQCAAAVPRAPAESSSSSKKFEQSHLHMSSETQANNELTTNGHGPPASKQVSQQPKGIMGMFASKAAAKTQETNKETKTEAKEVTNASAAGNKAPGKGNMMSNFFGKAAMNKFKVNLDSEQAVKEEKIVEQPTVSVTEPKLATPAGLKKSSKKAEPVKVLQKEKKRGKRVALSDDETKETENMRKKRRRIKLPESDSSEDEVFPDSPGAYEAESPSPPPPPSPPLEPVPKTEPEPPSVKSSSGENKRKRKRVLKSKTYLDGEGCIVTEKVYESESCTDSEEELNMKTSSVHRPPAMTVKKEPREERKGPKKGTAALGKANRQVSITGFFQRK
UniProt O15305: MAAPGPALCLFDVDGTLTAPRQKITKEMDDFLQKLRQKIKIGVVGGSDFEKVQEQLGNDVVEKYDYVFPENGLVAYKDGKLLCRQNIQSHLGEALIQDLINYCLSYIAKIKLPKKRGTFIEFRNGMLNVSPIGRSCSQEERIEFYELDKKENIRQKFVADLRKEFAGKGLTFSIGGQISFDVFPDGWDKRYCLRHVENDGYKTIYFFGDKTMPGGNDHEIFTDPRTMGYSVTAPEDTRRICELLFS
UniProt Q8NBL1: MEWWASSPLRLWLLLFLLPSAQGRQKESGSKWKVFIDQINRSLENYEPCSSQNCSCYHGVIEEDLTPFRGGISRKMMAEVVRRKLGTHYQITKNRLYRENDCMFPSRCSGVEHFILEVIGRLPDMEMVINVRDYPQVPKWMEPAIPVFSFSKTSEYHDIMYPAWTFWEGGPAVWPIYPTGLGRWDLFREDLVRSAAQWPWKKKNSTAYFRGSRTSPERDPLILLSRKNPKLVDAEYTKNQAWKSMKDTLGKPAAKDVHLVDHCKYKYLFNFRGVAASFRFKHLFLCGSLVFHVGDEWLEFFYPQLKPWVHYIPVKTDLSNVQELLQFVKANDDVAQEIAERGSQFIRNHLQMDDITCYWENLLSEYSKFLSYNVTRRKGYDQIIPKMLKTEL
UniProt Q9Y2Y1: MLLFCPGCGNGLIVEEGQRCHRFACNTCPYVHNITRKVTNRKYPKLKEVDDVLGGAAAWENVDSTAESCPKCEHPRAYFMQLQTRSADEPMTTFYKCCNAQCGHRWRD
UniProt Q9BY77: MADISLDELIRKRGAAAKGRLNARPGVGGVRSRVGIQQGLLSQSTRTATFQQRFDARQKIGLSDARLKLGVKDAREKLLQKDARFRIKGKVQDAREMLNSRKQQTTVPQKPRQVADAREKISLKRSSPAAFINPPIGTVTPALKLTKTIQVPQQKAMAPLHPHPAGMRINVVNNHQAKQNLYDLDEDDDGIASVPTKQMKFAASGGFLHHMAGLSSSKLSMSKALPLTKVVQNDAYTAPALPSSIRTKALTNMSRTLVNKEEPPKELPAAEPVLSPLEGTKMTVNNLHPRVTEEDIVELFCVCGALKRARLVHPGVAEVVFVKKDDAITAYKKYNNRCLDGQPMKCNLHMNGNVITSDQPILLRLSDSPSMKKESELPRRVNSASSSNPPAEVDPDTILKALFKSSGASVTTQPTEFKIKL

Tests used:
Test in all cases: log2 fold change, soluble protein after heating vs DMSO (PISA); higher = thermal stabilisation; K562 lysate, 10 uM; active = over 0.2 and 3.5 SD of the protein, either way, in both replicates (recomputed)
[1] = compound: CCCS(=O)(=O)Nc1ccc(F)c(C(=O)c2c[nH]c3ncc(-c4ccc(Cl)cc4)cc23)c1F [vemurafenib]
Method in brief: (§1)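 Dounce homogenisation of K562 pellets in PBS pH 7.4 with 1 mM MgCl2 produced a crude extract, used at 1 mg/mL protein. Exposure to 10 μM compound lasted 30 min, and aliquots were then heated for 3 min across 48°C-58°C, pooled and brought to 0.5% NP-40 at 4°C. The supernatant after 21,000xg for 90 min was quantified by TMTpro 16plex LC-MS/MS with channel sums equalised. Duplicate values are given as log-two fold change in thermal stability relative to solvent controls.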

[2] = compound: CCCS(=O)(=O)Nc1ccc(F)c(C(=O)c2c[nH]c3ncc(Cl)cc23)c1F
Method in brief: as §1

[3] = compound: CCN(CCCOc1ccc2c(Nc3cc(CC(=O)Nc4cccc(F)c4)[nH]n3)ncnc2c1)CCOP(=O)(O)O [barasertib]
Method in brief: as §1

[4] = compound: CC[C@@H]1C(=O)N(C)c2cnc(Nc3ccc(C(=O)NC4CCN(C)CC4)cc3OC)nc2N1C1CCCC1
Method in brief: as §1

[5] = compound: CC[C@@H]1C(=O)N(C)c2cnc(Nc3ccc(C(=O)N[C@H]4CC[C@H](N5CCN(CC6CC6)CC5)CC4)cc3OC)nc2N1C(C)C [volasertib]
Method in brief: as §1

[6] = compound: CCn1c(C(=O)N(C2CC2)C2CC2)cc2c3c(ncn3C)c(Nc3cc(C)n(C)n3)nc21
Method in brief: as §1

[7] = compound: CCn1cc(-c2ccnc3[nH]c(-c4cccc(CN(C)C)c4)cc23)c(-c2ccc(NC(=O)N(C)C)cc2)n1
Method in brief: as §1

[8] = compound: CN1CCC(CNc2ccc3ncc(-c4cccc(OC(F)(F)F)c4)n3n2)CC1
Method in brief: as §1

[9] = compound: CN1CCN(CCOc2cc(OC3CCOCC3)c3c(Nc4c(Cl)ccc5c4OCO5)ncnc3c2)CC1 [saracatinib]
Method in brief: as §1

[10] = compound: CN1CCN(c2nc(C3=C(c4c[nH]c5ccccc45)C(=O)NC3=O)c3ccccc3n2)CC1 [sotrastaurin]
Method in brief: as §1

[11] = compound: CN1CC[C@H](c2c(O)cc(O)c3c(=O)cc(-c4ccccc4Cl)oc23)[C@H](O)C1 [alvocidib]
Method in brief: as §1

[12] = compound: CN1CCc2c(c3ccccc3n2Cc2ccc(C(=O)NO)cc2)C1 [Tubastatin A]
Method in brief: as §1

[13] = compound: CNC(=O)C1=CC=CC=C1NC2=NC(=NC=C2Cl)NC3=C(C=C(C=C3)N4CCOCC4)OC
Method in brief: as §1

[14] = compound: CNC(=O)c1ccc(Nc2ncc(C(F)(F)F)c(NCc3nccnc3N(C)S(C)(=O)=O)n2)cc1 [defactinib]
Method in brief: as §1

[15] = compound: CNc1nc(-c2ccc3c(N)n[nH]c3c2)cc(N2C[C@@H](C(=O)NC3CCCCC3)CC[C@H]2C)n1
Method in brief: as §1

[16] = compound: COC(=O)N[C@@H](C)CNc1nccc(-c2cn(C(C)C)nc2-c2cc(Cl)cc(NS(C)(=O)=O)c2F)n1 [encorafenib]
Method in brief: as §1

[17] = compound: COC(=O)[C@H](CCSC)NC(=O)C1=C(C=C(C=C1)NC[C@H](CS)N)C2=CC=CC=C2
Method in brief: as §1

[18] = compound: COc1cc(Nc2ncc3c(n2)-c2ccc(Cl)cc2C(c2c(F)cccc2OC)=NC3)ccc1C(=O)O [alisertib]
Method in brief: as §1

[19] = compound: COc1cc2nc(-c3cc(F)ccc3O)nc(N[C@@H]3CNC[C@H]3C(C)(C)O)c2cc1OC
Method in brief: as §1

[20] = compound: COc1cc2ncnc(Nc3ccc(F)c(Cl)c3)c2cc1OCCCN1CCOCC1 [gefitinib]
Method in brief: as §1

Measured: log2 fold change

POLR2H (UniProt P52434)
inactive: [1] 0.021 | [2] 0 | [3] 0.085 | [4] 0 | [5] 0.002 | [6] -0.011 | [7] -0.059 | [8] 0.049 | [9] 0.02 | [10] 0.007 | [11] -0.04 | [12] 0.032 | [13] -0.021 | [14] -0.037 | [15] 0.014 | [16] -0.028 | [17] 0.009 | [18] -0.001 | [19] 0.016 | [20] 0.041

PMPCA (UniProt Q10713)
inactive: [1] 0.047 | [2] 0.037 | [3] -0.014 | [4] -0.039 | [5] -0.031 | [6] -0.025 | [7] -0.017 | [8] 0.233 | [9] -0.024 | [10] 0.006 | [11] -0.006 | [12] 0.049 | [13] -0.045 | [14] 0.004 | [15] -0.004 | [16] 0.001 | [17] 0.04 | [18] -0.03 | [19] 0.003 | [20] -0.02

PNPLA6 (UniProt Q8IY17)
inactive: [1] -0.011 | [2] 0.02 | [3] 0.118 | [4] -0.24 | [5] -0.051 | [6] 0.008 | [7] -0.19 | [8] -0.097 | [9] 0.121 | [10] 0.023 | [11] -0.134 | [12] 0.017 | [13] 0.125 | [14] -0.051 | [15] 0.128 | [16] 0.023 | [17] -0.311 | [18] -0.06 | [19] -0.04 | [20] -0.223

POP4 (UniProt O95707)
inactive: [1] -0.029 | [2] 0.011 | [3] -0.025 | [4] -0.005 | [5] -0.042 | [6] -0.03 | [7] -0.04 | [8] 0.03 | [9] -0.005 | [10] -0.053 | [11] -0.013 | [12] 0.039 | [13] -0.021 | [14] 0.003 | [15] -0.006 | [16] -0.016 | [17] 0 | [18] 0.01 | [19] -0.005 | [20] 0.012

Random excerpt: 2 records from the list
POLR2H (UniProt P52434)
inactive: [1] 0.021 | [2] 0 | [3] 0.085 | [4] 0 | [5] 0.002 | [6] -0.011 | [7] -0.059 | [8] 0.049 | [9] 0.02 | [10] 0.007 | [11] -0.04 | [12] 0.032 | [13] -0.021 | [14] -0.037 | [15] 0.014 | [16] -0.028 | [17] 0.009 | [18] -0.001 | [19] 0.016 | [20] 0.041

POP4 (UniProt O95707)
inactive: [1] -0.029 | [2] 0.011 | [3] -0.025 | [4] -0.005 | [5] -0.042 | [6] -0.03 | [7] -0.04 | [8] 0.03 | [9] -0.005 | [10] -0.053 | [11] -0.013 | [12] 0.039 | [13] -0.021 | [14] 0.003 | [15] -0.006 | [16] -0.016 | [17] 0 | [18] 0.01 | [19] -0.005 | [20] 0.012

Remaining list, next part

PNISR (UniProt Q8TF01)
inactive: [1] 0.004 | [2] 0.017 | [3] -0.041 | [4] 0.046 | [5] 0.014 | [6] 0.004 | [7] -0.085 | [8] 0.063 | [9] 0.006 | [10] 0.004 | [11] -0.027 | [12] -0.03 | [13] 0.017 | [14] 0.011 | [15] 0.065 | [16] 0.015 | [17] -0.021 | [18] -0.004 | [19] -0.019 | [20] 0.012

PLG (UniProt P00747)
inactive: [1] 0.286 | [2] 0.06 | [3] 0.182 | [4] 0.068 | [5] 0.002 | [6] 0.023 | [7] -0.133 | [8] 0.07 | [9] -0.155 | [10] 0.024 | [11] -0.032 | [12] 0.094 | [13] 0.021 | [14] -0.017 | [15] -0.03 | [16] 0.054 | [17] 0.04 | [18] 0.05 | [19] 0.088 | [20] -0.118

PPID (UniProt Q08752)
inactive: [1] -0.014 | [2] 0.002 | [3] 0 | [4] -0.03 | [5] -0.025 | [6] 0.01 | [7] 0.063 | [8] -0.133 | [9] -0.018 | [10] -0.018 | [11] 0.04 | [12] -0.038 | [13] 0.022 | [14] -0.006 | [15] -0.024 | [16] -0.016 | [17] 0.118 | [18] -0.003 | [19] -0.007 | [20] -0.01

POLB (UniProt P06746)
inactive: [1] -0.013 | [2] 0.003 | [3] -0.029 | [4] -0.013 | [5] -0.025 | [6] 0.032 | [7] -0.015 | [8] -0.07 | [9] 0.033 | [10] 0.048 | [11] 0.023 | [12] -0.199 | [13] -0.062 | [14] 0.028 | [15] -0.033 | [16] 0.045 | [17] 0.086 | [18] 0.015 | [19] 0 | [20] 0.038

PNPT1 (UniProt Q8TCS8)
inactive: [1] 0.008 | [2] 0.021 | [3] 0.048 | [4] 0.008 | [5] -0.001 | [6] -0.036 | [7] -0.028 | [8] 0.01 | [9] 0.002 | [10] 0.01 | [11] -0.008 | [12] 0.047 | [13] -0.025 | [14] -0.011 | [15] 0.004 | [16] 0 | [17] 0.025 | [18] 0.005 | [19] -0.003 | [20] 0.005

POLD3 (UniProt Q15054)
inactive: [1] 0.003 | [2] -0.005 | [3] 0.004 | [4] -0.014 | [5] -0.045 | [6] -0.013 | [7] 0.009 | [8] -0.03 | [9] 0.028 | [10] -0.01 | [11] 0.041 | [12] -0.032 | [13] 0.099 | [14] -0.033 | [15] -0.03 | [16] 0.021 | [17] 0.048 | [18] -0.025 | [19] 0.007 | [20] -0.018

POLR2B (UniProt P30876)
inactive: [1] 0.021 | [2] -0.004 | [3] 0.039 | [4] -0.049 | [5] -0.074 | [6] 0.01 | [7] -0.029 | [8] 0.017 | [9] 0.016 | [10] 0.024 | [11] -0.008 | [12] -0.092 | [13] 0.057 | [14] 0.004 | [15] -0.026 | [16] 0.022 | [17] 0.121 | [18] 0.002 | [19] -0.018 | [20] 0.012

POC5 (UniProt Q8NA72)
inactive: [1] -0.062 | [2] -0.049 | [3] 0.014 | [4] 0.17 | [5] 0 | [6] -0.045 | [7] 0.021 | [8] -0.011 | [9] -0.087 | [10] -0.046 | [11] -0.048 | [12] -0.046 | [13] 0.054 | [14] 0.154 | [15] 0.06 | [16] 0 | [17] -0.048 | [18] -0.018 | [19] -0.009 | [20] 0.042

PMM2 (UniProt O15305)
inactive: [1] 0.005 | [2] 0.007 | [3] 0 | [4] -0.016 | [5] -0.012 | [6] 0.033 | [7] -0.105 | [8] 0.065 | [9] 0.021 | [10] 0.007 | [11] -0.013 | [12] 0.018 | [13] -0.03 | [14] -0.012 | [15] -0.091 | [16] 0.03 | [17] -0.027 | [18] 0.023 | [19] -0.012 | [20] 0.019

POGLUT1 (UniProt Q8NBL1)
inactive: [1] 0.008 | [2] -0.018 | [3] -0.001 | [4] -0.02 | [5] -0.015 | [6] 0.024 | [7] 0.01 | [8] -0.023 | [9] -0.007 | [10] 0.041 | [11] 0.022 | [12] -0.018 | [13] -0.05 | [14] -0.002 | [15] -0.083 | [16] 0.006 | [17] 0.02 | [18] 0.03 | [19] -0.031 | [20] 0.005

POLR3K (UniProt Q9Y2Y1)
inactive: [1] 0.011 | [2] 0.004 | [3] 0.045 | [4] 0.048 | [5] -0.01 | [6] 0.001 | [7] -0.059 | [8] 0.066 | [9] -0.152 | [10] -0.004 | [11] 0.04 | [12] -0.015 | [13] 0.007 | [14] -0.018 | [15] 0.187 | [16] 0 | [17] -0.146 | [18] 0.003 | [19] 0.093 | [20] -0.036

POLDIP3 (UniProt Q9BY77)
inactive: [1] -0.024 | [2] 0.008 | [3] 0.035 | [5] -0.011 | [6] -0.026 | [7] -0.125 | [8] 0.108 | [9] 0.011 | [10] -0.025 | [11] 0.005 | [12] -0.027 | [13] 0.093 | [14] 0.042 | [15] 0.003 | [18] -0.035 | [19] 0.011 | [20] 0.023
